Results are given in words; binding and its absence hold for the method and conditions named. Some results given as binding are weak or reduced against the parent protein; the word gives no strength.
Biological target: wild type gamma-prefoldin (UniProt Q58064)
Test: multimodal chromatography

B1: wild type gamma-prefoldin (protein, UniProt Q58064 1-147)
chain: MVNEVIDINEAVRAYIAQIEGLRAEIGRLDATIATLRQSLATLKSLKTLGEGKTVLVPVGSIAQVEMKVEKMDKVVVSVGQNISAELEYEEALKYIEDEIKKLLTFRLVLEQAIAELYAKIEDLIAEAQQTSEEEKAEEEENEEKAE
Which binding does the source give for B1 here?
The binding was “binds”.

From paper doi:10.1101/2022.08.21.504681
